Laboratory results published in article PMC3085955 (Journal of medicinal chemistry, 2011).

Test system: T. gondii RHΔhxgprt
Assay type: cell-based, Toxoplasma gondii
Details: 1st infection cycle

CCC[C@@H]1C[C@@H](C(=O)N[C@@H]([C@H]2O[C@H](SC)[C@H](O)[C@@H](O)[C@H]2O)[C@H](C)Cl)N(C)C1 [Clindamycin]
apicoplast replication: significantly impaired
